Test results from patent US20160038468A1 (priority 2013, published 2016).
For at least one compound, name, drawing or mass did not settle the structure.

Tests used:
[1] = test system: Atopobium vaginae; assay: Agar dilution MIC (CLSI), Atopobium vaginae vaginal isolates; assay type: cell-based; conditions: # tested 62
[2] = test system: Mobiluncus all species; assay: Agar dilution MIC (CLSI), Mobiluncus all species; assay type: cell-based; design: MIC Range: unit not given beside the values
[3] = test system: B. fragilis, ATCC 25285; conditions: agar dilution testing, from CLSI Table 5; cited from earlier work
[4] = test system: Anaerococcus tetradius; assay: Agar dilution MIC (CLSI), Anaerococcus tetradius vaginal isolates; assay type: cell-based; design: unit not given beside the values; conditions: # tested 21
[5] = test system: Peptoniphilus lacrimalis; assay: Agar dilution MIC (CLSI), Peptoniphilus lacrimalis vaginal isolates; assay type: cell-based; design: unit not given beside the values; conditions: # tested 20
[6] = test system: Finegoldia magna; assay: Agar dilution MIC (CLSI), Finegoldia magna vaginal isolates; assay type: cell-based; design: unit not given beside the values; conditions: # tested 20
[7] = test system: Prevotella timonensis; assay: Agar dilution MIC (CLSI), Prevotella timonensis vaginal isolates; assay type: cell-based; design: unit not given beside the values; conditions: # tested 33
[8] = test system: Prevotella bivia; assay: Agar dilution MIC (CLSI), Prevotella bivia vaginal isolates; assay type: cell-based; design: unit not given beside the values; conditions: # tested 34

**Q.** What does the source list for CCC[C@@H]1C[C@@H](C(=O)N[C@@H]([C@H]2O[C@H](SC)[C@H](O)[C@@H](O)[C@H]2O)[C@H](C)Cl)N(C)C1 [Clindamycin]?
**A.** MIC Range [1]: 0.03 −> 128; activity on Mobiluncus species [2]: had activity; MIC Range ([2]; # tested 40): 0.03 −> 128; Acceptable Range of MIC for control strain [3]: 0.5 to 2 µg/mL; MIC Range [4]: 0.03 −> 128; MIC Range [5]: 0.06 −> 128; MIC Range [6]: 0.03 −> 128; MIC Range [7]: 0.03 −> 128; MIC Range [8]: 0.03 −> 128
